Measurements: the RNAGym collection of RNA variant scans (doi:10.1126/science.aae0568)
This sample is rich in variants without activity.

B1: tRNA (parent)
chain: GUUCCGUUGGCGUAAUGGUAACGCGUCUCCCUCCUAAGGAGAAGACUGCGGGUUCGAGUCCCGUACGGAACG

Variants of: B1
Assay: yeast fitness relative to wild type (ratio to wild type); higher = fitter; tRNA-Arg(CCU), competitive growth, 37 C, YPD
Summary of the method: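 Changes in genotype frequencies gave Darwinian fitness relative to wild type. Frequencies were read by 100-nucleotide paired-end sequencing of gene amplicons before and after pooled Saccharomyces cerevisiae strains, carrying tRNA-Arg(CCU) gene variants at the native locus, were competed in YPD at 37°C for 24 hours in six replicates. A genotype was kept only with ≥ 100 starting reads, and estimates < 0.5 were set to 0.5.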

Variant	yeast fitness
GUUCCGUUGGCGAAAUGGUAAGGCCUUUCGCUCCUAAGGAGAAGACUGCGGGUUCGAGUCCCGUACGGAACG [U13A C22G G25C C27U C30G]	≤ 0.5
GUUCCGUUGGCGAAAUGGUAAGGCCUUUCGCUCCUGAGGAGAAGACUGCGGGUUAGAGUCCCGUACGGUACG [U13A C22G G25C C27U C30G A36G C55A A69U]	≤ 0.5
GUUCCGUUGGCGAAAUGGUAACGAGUCUCCCUCCUAAGGAGAAGCCUGCGGGUUCGAGUCCCGUACGGAACG [U13A C24A A45C]	≤ 0.5
GUUCCGUUGGCGAAAUGGUAACGCGUAUCCCUCCUCAGGAGUAGACUGCGGGUUCGAGUCCCGGACGGAACG [U13A C27A A36C A42U U64G]	≤ 0.5
GUUCCGUUGGCGAAAUGGUAACGCGUAUCCCUCCUAAGGAGAAGACUGUGGGUUCGAGUUCAGUGCGGAACG [U13A C27A C49U C60U C62A A65G]	≤ 0.5
GUUCCGUUGGCGAAAUGGUAACGCGUAUCCCUCCUAAGGAGAAGACUGCGGGUUCGAGUCUCGUAUGGAACG [U13A C27A C61U C66U]	≤ 0.5
GUUCCGUUGGCGAAAUGGUAACGCGUGUCGCUCCUAAGGAGAAGACUGCGGGUUCGAGUUCCGUACGGAACG [U13A C27G C30G C60U]	≤ 0.5
GUUCCGUUGGCGAAAUGGUAACGCGUGUCCCUCGUAAGGAGAAGACUGCGGGUUCGAGUCCCGUACGGAACG [U13A C27G C34G]	≤ 0.5
GUUCCGUUGGCGAAAUGGUAACGCGUUUCCCUCCUAAGGAGAAGACUGCGGGUUCGAGUCACGUACGGAACG [U13A C27U C61A]	0.619
GUUCCGUUGGCGAAAUGGUAACGCGUCUUGCUCCUAAGGAGAAGCCUGCGGGUUCGAGUACAGUACGGAACG [U13A C29U C30G A45C C60A C62A]	≤ 0.5
GUUCCGUUGGCGAAAUGGUAACGCGUCUCCCUUCUAGGGGGAAGGCUGCGGGUUCGAGUCGCGUACGGAACG [U13A C33U A37G A40G A45G C61G]	≤ 0.5
GUUCCGUUGGCGAAAUGGUAACGCGUCUCCCUUCUAAGGAGAAGACUGCGUCUUCGAGUCCCGUGCGGAACG [U13A C33U G51U G52C A65G]	≤ 0.5
GUUCCGUUGGCGAAAUGGUAACGCGUCUCCCUCAUACGGAGAAGACUGCGGGUUCGAAUCCCGUACGGAACG [U13A C34A A37C G58A]	≤ 0.5
GUUCCGUUGGCGAAAUGGUAACGCGUCUCCCUCCUAAGGAGAAGACUGCGGGUUCGAGUCGCAUACGGAGCG [U13A C61G G63A A70G]	≤ 0.5
GUUCCGUUGGCGAAAUGGUAACGCGUCUCCCUCCUAAGGAGAAGACUGCGGGUUCGAGUCUCGUACUGAACG [U13A C61U G67U]	≤ 0.5
GUUCCGUUGGCGAAAUAGUAAUGCGUCUCUCUCCUAACGAGAAGACUGAGGGUUCGAGUCCCGUACGGAACG [U13A G17A C22U C30U G38C C49A]	≤ 0.5
GUUCCGUUGGCGAAAUAGUAACGCGUCUCCCUCCUAAGGAGAAGACUGCCGGUUCGAGUCCCGUACGGAACG [U13A G17A G50C]	≤ 0.5
GUUCCGUUGGCGAAAUGCUCACGCGUCUCCCUCCUAAGGAGAAGACUGCGGGUUCGAGUCCGGUACGUAACG [U13A G18C A20C C62G G68U]	≤ 0.5
GUUCCGUUGGCGAAAUGCUCACGCGUCUCCCUCCGAAGGAGAAGACUGCGGGUUCGAGUCCCGUACGGUACG [U13A G18C A20C U35G A69U]	≤ 0.5

Variant	yeast fitness
GUUCCGUUGGCGAAAUGGUAACACGUCUCCCUCCUAUGGAGAAGACUGAGGAUUCGAGUCCCGUACGGAACG [U13A G23A A37U C49A G52A]	≤ 0.5
GUUCCGUUGGCGAAAUGGUAACACGUCACCGUCCUAAGGAGAAGACUGCGGGUUCGAGUCACGUACGGGACG [U13A G23A U28A C31G C61A A69G]	≤ 0.5
GUUCCGUUGGCGAAAUGGUAACGCAUCUCCCUCCUAAGGAGAAGACUCCGGCUUUGAGUCCCGUACGGAACG [U13A G25A G48C G52C C55U]	≤ 0.5
GUUCCGUUGGCGAAAUGGUAACGCGUCUCCCUCCUAAGGAGAAGACUGCCGGUUCGAGUCCCGUACGGUACG [U13A G50C A69U]	≤ 0.5
GUUCCGUUGGCGAAAUGGUAACGCGUCCCCCUCCUAAGGAGAAGACUGCGAGUUCGAGUCCCGUACGGCACG [U13A U28C G51A A69C]	≤ 0.5
GUUCCGUUGGCGAAAUGGUAACGCGUCUCCCAGCUAAGGAGCAGACUGCGGGUUCGUGUCCCGUACGGAACG [U13A U32A C33G A42C A57U]	≤ 0.5
GUUCCGUUGGCGAAAUGGUAACGCGUCUCCCUCCUAAGGAGAAGACUGCGGGUCCGAGUCCCGUAUGCUACG [U13A U54C C66U G68C A69U]	≤ 0.5
GUUCCGUUGGCGAAAUGGUAACGCGUCUCCCUCCUAAGGAGAAGACUGCGGGUUCGAGCCCCGUAAGGAACG [U13A U59C C66A]	≤ 0.5
GUUCCGUUGGCGCUAUGGUACCGCGUCUCCCUCCUAGGGAGAAGACUGCGGGUUCGAGUCCCGUACGGAUCG [U13C A14U A21C A37G A70U]	≤ 0.5
GUUCCGUUGGCGCAUUGGUAACACGUCUCCCUACUAAGGAGGAGACUGCGGGUUCAAGUCCCGUACGGAACG [U13C A15U G23A C33A A42G G56A]	≤ 0.5
GUUCCGUUGGCGCAAUGGUCACGCGUCUCCCUCCUAAGGGGAAGACUGCGGGUUCGAGUCCCGUACGGAACG [U13C A20C A40G]	≤ 0.5
GUUCCGUUGGCGCAAUGGUUACGCGUCUCCCUCCUAAGCAGACGACUGAGGGAUCGAGUCCCGUACGGAACG [U13C A20U G39C A43C C49A U53A]	≤ 0.5
GUUCCGUUGGCGCAAUGGUAACGCGUCUCCCUCCUUAGGAGAAGCCUGGGGGUUCGAGUCCCGUACGGAACG [U13C A36U A45C C49G]	≤ 0.5
GUUCCGUUGGCGCAAUGGUAACGCGUCUCCCUCCUACGGAGAAGACUGCGGGUUCGAGUCCCGUACGGAUCG [U13C A37C A70U]	≤ 0.5
GUUCCGUUGGCGCAAUGGUAACGCGUCUCCCUCCUAUGGAGAAGACUGCGGGUUCGAGUCCCGUAUGGAACG [U13C A37U C66U]	≤ 0.5
GUUCCGUUGGCGCAAUGGUAACGCGUCUCCCUCCUAAGGAGCAGACUGCGGGUUCGAGUCCCGUUCGGAACG [U13C A42C A65U]	≤ 0.5
GUUCCGUUGGCGCAAUGGUAACGCGUCUCCCUCCUAAGGAGAUGACUGCGGGUUCGAGUCCCGUACGGAGCG [U13C A43U A70G]	0.966
GUUCCGUUGGCGCAAUGGUAACGCGUCUCCCUCCUAAGGAGAUGACUGCGGGUUCAAGUCCCGUACGGAACG [U13C A43U G56A]	0.797
GUUCCGUUGGCGCAAUGGUAACGCGUCUCCCUCCUAAGGAGAAGCCUGCGGGUUCGAGUCCCGUACGGAACG [U13C A45C]	0.853
